Most values lie at the floor of the assay. Slopes are relative: functional sequences can read slightly below zero.
system: Saccharomyces cerevisiae PS128 hsf1 delta, HSF1(1-493) fusion; experiment: growth estimate (transactivation domain function in HSF1 fusion, heat-shock survival) (a.u. (slope of normalised read count over time)); higher = stronger growth at 37°C, i.e. more transactivation activity; settings: library: random library
Protocol: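 Random 60-nt DNA library encoding peptides of up to 20 aa, fused to the C-terminus of yeast HSF1 residues 1-493 (C-terminal TAD deleted) and expressed from the native HSF1 promoter on a CEN plasmid in hsf1-deleted S. cerevisiae PS128. Cells were selected at 37°C on -trp 5-FOA plates for 0, 2, 4, 6 and 8 days and amplicons were sequenced. Growth estimate is the slope of a robust linear fit of total-sum-normalised read counts (normalised to the first time point) over time, using at least 2 replicates. Sequences are classed functional (TAD activity) above a threshold of -0.13, set from stop-codon control sequences.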

Substance | growth estimate
DWPIKGTQPHFRRSNHR | < -0.25
TGFAVYDESDRGAIKV | < -0.25
KRDEGY | < -0.25
GTHSWARYDP | < -0.25
QRSLFNTQQVVQG | < -0.25
RRRTLVSGIPWVINRGFIAD | < -0.25
RRRAGHRGAGGAAISPRARY | < -0.25
QSR | < -0.25
SYARRYGWDE | < -0.25
SVGRSQSSTYTGRTSLAGEL | < -0.25
RSTRREDATFSLPMVYLTD | < -0.25
ARERPLFWLRRIVVRQTASM | < -0.25
HGVFQGSISRSGW | < -0.25
PQVINRTPCVMSKFSCRLPS | < -0.25
QANGLVFGADIGWQLDSSVG | < -0.25
RFLR | < -0.25
AVNRNAMPRIKANTHFLTW | < -0.25
DSLHDGRISTLVWTVREA | < -0.25
NGTGMYPAPQPSSWIGKLHT | < -0.25
RKSIRRLGSV | < -0.25
GLGNRQF | -0.0161
IWWRVAS | < -0.25
TVIYTKHPVRLPQDSGGPES | < -0.25
GEVGRSTLVAGRGRHDIHYH | < -0.25
AGRYMTT | < -0.25

Substance | growth estimate
VDKDNKW | < -0.25
LDTSSRKYGRRLANARGLAI | < -0.25
MVVAVQNPER | < -0.25
LGTVGLLLSASR | < -0.25
TTSGWP | < -0.25
SFVFYGPSFSERTQVTHVYT | < -0.25
HCTNRRRRRSLLRAVKFLAE | < -0.25
VHE | -0.0625
PCLPPEDKTISRFATVTRWP | < -0.25
IGRSSES | < -0.25
AVRVPG | < -0.25
TRTVKSY | < -0.25
CMC | -0.25
QFVYGDWTRCAWTAGDKRIR | < -0.25
EHESPLEPS | < -0.25
RTTRRQPRSRTCRLIEYFLW | < -0.25
LSGRRTSDQGESDPATRAPA | < -0.25
RTPRRDVTYLVRVLTIIIVD | < -0.25
AYASTDMVPMSHTTLGEWKS | < -0.25
FLVYRVRKKDRRSLLH | < -0.25
IKTT | < -0.25
ANLALLGEGEIWSIFSWQR | -0.0944
DQEFDLARVLGDLASSPLER | < -0.25
EGISEGREYARP | < -0.25
ARTYAGGSL | < -0.25

Substance | growth estimate
NEGGRVREYLHGSASRFFV | < -0.25
QNLKK | < -0.25
WNCRVCYFKLRIPSRDTSLP | < -0.25
LVTL | < -0.25
EQGAGPGFTVLNALGRSHQG | < -0.25
RLGELFS | < -0.25
LGSLSGAAKPSLRIKVARIP | < -0.25
LGFVGFRGYVVRRLLRAGYL | < -0.25
FQCVQLKIQTPS | < -0.25
AVHDPRTGT | < -0.25
FGDVSGHILQLLL | < -0.25
ICTR | < -0.25
DTRW | < -0.25
LPNL | < -0.25
CLLLKNCVRPCATPTTLQSA | < -0.25
LSSKVGVRVSLDRSKLVIIR | -0.245
WWGYLSHNGTSDWLRSFTEI | -0.112
ALVHAELIRRTFNQAGKKD | < -0.25
WWMPSWQGSAHDQHVSVTPR | < -0.25
SFCYRPMGG | < -0.25
EHPGASWVLALRVSRRRWLN | < -0.25
IVHRLLRISVIASD | -0.246
GAADAGFGAGSPV | -0.103
RLMGFLIGDNVLSSPSYRQR | < -0.25
KAGSYSCEQSREIVAAGNRS | < -0.25

Substance | growth estimate
PSRYRKSNSVECQLTQEGWT | < -0.25
VGWHRRY | < -0.25
LERQPYSDPDCTTR | < -0.25
VDRRPE | -0.246
VTGVWERK | < -0.25
LPIETLDLGNIQGCRDTASL | < -0.25
TDSGSTLSKWHTEYSQLLFR | < -0.25
LSKVSPALLKG | < -0.25
KLKPSLVHRAHMSWRAVKGA | < -0.25
PPTVGSDGIFGWVRAFRIPL | < -0.25
HIVSVRIPDVRR | < -0.25
QLGPG | < -0.25
TEEVLVRSRSRV | < -0.25
PFEH | < -0.25
WYLSDPVWTSS | -0.205
ILQDSQL | < -0.25
RNSL | < -0.25
AKNT | -0.246
WQCTRRG | < -0.25
FLYCGFSAQGLTTRFIQLQQ | < -0.25
DWDTSGMGYRRDLLCPPRGC | < -0.25
ARVWATFTARISGG | < -0.25

Nothing new here: entries from further up.
Substance | growth estimate
PSRYRKSNSVECQLTQEGWT | < -0.25
VGWHRRY | < -0.25
LERQPYSDPDCTTR | < -0.25
VDRRPE | -0.246

Pulled one by one from above, four records:
Substance | growth estimate
ARTYAGGSL | < -0.25
WQCTRRG | < -0.25
NEGGRVREYLHGSASRFFV | < -0.25
HIVSVRIPDVRR | < -0.25
